For the test, the target named is recombinant LRP6 (R&D Systems Cat#1505-LR) (UniProt O75581). Put plainly: ELISA; plate coated with 1 µg/ml recombinant LRP6, 500 ng/ml rhDKK1 with hIgG1 control, bound DKK1 detected with anti-DKK1 antibody. Background: In an ELISA, binding on a coated surface is turned into a signal by an enzyme label.

Chains of the proteins cited; added tags and fusions are not shown. Residues count along the entry.
UniProt O75581, residues 20-1368: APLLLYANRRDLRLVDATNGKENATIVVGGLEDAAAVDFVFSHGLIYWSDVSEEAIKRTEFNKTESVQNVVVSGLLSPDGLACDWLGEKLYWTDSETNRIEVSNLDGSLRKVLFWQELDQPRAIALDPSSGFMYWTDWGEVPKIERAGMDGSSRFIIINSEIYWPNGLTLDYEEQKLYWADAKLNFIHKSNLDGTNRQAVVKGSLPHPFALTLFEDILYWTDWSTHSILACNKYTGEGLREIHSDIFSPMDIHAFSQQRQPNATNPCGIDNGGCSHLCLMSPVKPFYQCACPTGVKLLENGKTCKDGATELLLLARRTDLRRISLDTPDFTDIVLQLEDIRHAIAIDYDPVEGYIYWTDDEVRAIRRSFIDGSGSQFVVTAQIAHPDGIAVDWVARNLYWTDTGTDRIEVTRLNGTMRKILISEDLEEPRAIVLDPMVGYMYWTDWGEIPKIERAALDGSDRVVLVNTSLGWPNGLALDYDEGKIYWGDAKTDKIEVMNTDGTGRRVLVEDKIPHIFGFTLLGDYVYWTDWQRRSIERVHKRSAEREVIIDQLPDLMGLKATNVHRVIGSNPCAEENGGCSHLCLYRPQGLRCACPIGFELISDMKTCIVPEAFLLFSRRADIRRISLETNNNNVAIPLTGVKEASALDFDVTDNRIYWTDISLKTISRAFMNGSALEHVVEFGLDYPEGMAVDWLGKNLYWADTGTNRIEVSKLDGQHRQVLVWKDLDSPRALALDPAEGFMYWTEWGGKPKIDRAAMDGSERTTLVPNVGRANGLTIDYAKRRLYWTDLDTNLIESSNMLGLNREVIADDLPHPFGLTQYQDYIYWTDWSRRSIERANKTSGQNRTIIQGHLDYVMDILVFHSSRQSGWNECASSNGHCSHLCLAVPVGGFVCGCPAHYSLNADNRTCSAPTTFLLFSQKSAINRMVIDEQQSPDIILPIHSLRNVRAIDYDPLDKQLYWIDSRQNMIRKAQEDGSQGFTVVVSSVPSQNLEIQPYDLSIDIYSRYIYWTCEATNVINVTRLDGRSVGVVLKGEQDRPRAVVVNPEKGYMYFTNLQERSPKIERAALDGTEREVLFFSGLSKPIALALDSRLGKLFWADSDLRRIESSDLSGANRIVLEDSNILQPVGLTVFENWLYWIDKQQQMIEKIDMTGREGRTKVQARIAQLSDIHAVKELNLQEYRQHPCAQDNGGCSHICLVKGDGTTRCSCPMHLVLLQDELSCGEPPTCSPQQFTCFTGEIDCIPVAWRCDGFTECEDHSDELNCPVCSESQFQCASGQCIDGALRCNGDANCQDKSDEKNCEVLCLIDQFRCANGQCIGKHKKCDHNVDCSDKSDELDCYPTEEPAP

The source of these data is US20120023600A1.

These are yes or no findings as the source states them, for the method shown. Some entries that bind do so weakly or less than the wild type.

B1: recombinant human DKK1 (ligand)
chain: TLNSVLNSNAIKNLPPPLGGAAGHPGSAVSAAPGILYPGGNKYQTIDNYQPYPCAEDEECGTDEYCASPTRGGDAGVQICLACRKRRKRCMRHAMCCPGNYCKNGICVSSDQNHFRGEIEETITESFGNDHSTLDGYSRRTTLSSKMYHTKGQEGSVCLRSSDCASGLCCARHFWSKICKPVLKEGQVCTKHRRKGSHGLEIFQRCYCGEGLSCRIQKDHHQASNSSRLHTCQRH
With B1, the binding entry was “binds”.
